Where “and” joins values, the source holds several entries; their conditions need not be identical. Equal entries are not always repeated. This continues a long series; more values of the same kind are listed elsewhere.
Test system: 324938-238-R-J1-PDC complex spheroid growth, % test/control
Assay: Anticancer human tumor 324938-238-R-J1-PDC patient-derived bladder carcinoma cell line growth inhibition [AhR]
Conditions: stronger effect = lower value
Description: Multicellular complex tumor spheroid response to aryl hydrocarbon receptor antagonists in combination with a variety of drugs and investigational agents in selected tumor cell lines
The current study was undertaken to assess response to aryl hydrocarbon receptor antagonists in combination with standard-of-care drugs and investigational agents in solid tumor complex spheroid models. Complex spheroids include a stromal component modeled by human endothelial cells (HUVEC) and fibroblasts modeled by human mesenchymal stem cells (MSCs). The concentration ranges selected for each drug and investigational agent were based upon clinically achievable concentrations if the clinical Cmax of the agent was known.
Compounds. The drugs and investigational agents: BAY 2416964 (NSC825713), GNF351 (NSC835774), CH-223191 (NSC835775), CPI-455 (NSC825282), aza-TdCyd (NSC777586), decitabine (NSC127716), belinostat (NSC758774), entinostat (NSC756642), pevonedistat (NSC761192), tazemetostat (NSC777109), talazoparib (NSC765396), olaparib (NSC753686), selinexor (NSC780203), nedisertib (M3814, NSC802822), bortezomib (NSC756655), venetoclax (NSC766270), doxorubicin (NSC123127), elimusertib (BAY189344, NSC800525), ceralasertib (AZD6738, NSC777638), TAK-243 (NSC785004), alisertib (NSC759677), etoposide (NSC141540), topotecan (NSC609699), eribulin (NSC707389), gemcitabine (NSC613327), carboplatin (NSC241240), cisplatin (NSC119875), and SN-38 (NSC673596) were obtained from the National Cancer Institute (NCI) Developmental Therapeutics Program Chemical Repository (32). The FDA-approved anticancer drug set is available from the Developmental Therapeutics Program at https://dtp.cancer.gov/organization/dscb/obtaining/available plates.htm. […] The stock solutions were prepared in dimethyl sulfoxide (DMSO, Sigma-Aldrich, St. Louis, MO, cat. D2650), except for the platinum compounds which were prepared in saline (Quality Biological, Gaithersburg, MD, cat. 114-055-101), at 800-fold the tested concentration and stored at -70 degrees C prior to their use. All drugs and investigational agents were tested over a range starting from a high concentration at or near the clinical Cmax and decreasing in half-log increments. If the clinical Cmax for an agent had not been determined, the highest concentration tested was 10 microM (Table 1).
Cell Culture. All cells were maintained in an incubator at 37 degrees C and 5% CO2 with 95% humidity. The PDC lines were cultured according to standard operating procedures established by the NCI PDMR (https://pdmr.cancer.gov). Briefly, all PDCs were thawed and cultured in Matrigel-coated flasks prepared with a working solution of 1X Ham's F-12 nutrient mix, without supplementation (Invitrogen, Waltham, MA, cat. 11765054), 100 U/mL penicillin-streptomycin (Invitrogen, cat. 15140122), and 2.5% Matrigel (Corning Inc., Corning, NY, cat. 354248) for the first three passages. All PDCs were cultured in complete DMEM/F-12 media containing advanced DMEM/F-12 (Invitrogen, cat. 12634028), 4.9% defined fetal bovine serum, heat inactivated (HyClone Laboratories Inc., Logan, UT, cat. SH30070.03HI), 389 ng/mL hydrocortisone (Sigma-Aldrich, cat. H4001), 9.7 ng/mL human EGF recombinant protein (Invitrogen, cat. PHG0313), 23.4 microg/mL adenine (Sigma-Aldrich, cat. A2786), 97.3 U/mL penicillin-streptomycin (Invitrogen, cat. 15140122), 1.9 mM L-glutamine (Invitrogen, cat. 25030081), and 9.7 microM Y-27632 dihydrochloride (Tocris Bioscience, Bristol, United Kingdom, cat. 1254). The PDCs were cultured in complete DMEM/F12 media without 10 microM Y-27632 dihydrochloride for at least two passages prior to the screen. The established cell lines NCI-H1341 and […] were cultured in DMEM/F-12, HEPES (Invitrogen, cat. 11330032), 5% defined fetal bovine serum (HyClone Laboratories Inc., cat. SH30070.03), ITS premix universal culture supplement [insulin (5 microg/mL), transferrin (5 microg/mL), and selenious acid (5 ng/mL)] […]
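Also: spheroids exposed to agents for seven days before viability read.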

SMILES	viability, T/C (compound 0.1 µM)	viability, T/C (compound 1 µM)	viability, T/C (compound 10 µM)	viability, T/C (compound 0.316 µM)	viability, T/C (compound 3.16 µM)
Cc1cncc(-c2nc(NCCc3c[nH]c4ccccc34)c3ncn(C(C)C)c3n2)c1	94.3% and 72.1% and 102%	102% [middle of 4 runs]	3.45% [middle of 4 runs]		
CC(CO)NC(=O)c1cc(-c2ccc(Cl)cc2)nn(-c2cnn(C)c2)c1=O (stereo not drawn)	100% [middle of 4 runs]	96.3% and 82.6% and 79.4%	68.5% [middle of 5 runs]	92.5% and 104% and 103%	74.7% [middle of 6 runs]
Cc1ccccc1N=Nc1ccc(NC(=O)c2ccnn2C)c(C)c1	98.7% [middle of 4 runs]	92.3% [middle of 4 runs]	72.8% [middle of 5 runs]	89.4% [middle of 5 runs]	81.4% [middle of 5 runs]

Source: PubChem BioAssay AID1918995 (Molecular Pharmacology Branch, DTP, NCI, 2023)
